# Results reported in PubChem BioAssay AID1347131 (National Center for Advancing Translational Sciences (NCATS), 2019).
# The whole screen tested about 410,000 compounds, of which about 2,000 (0.49%) were called active. Inconclusive means that the source gave no clear call. Such entries were picked first, then a sample of the others. Calls come from the whole dose curve; tested in HEK293 reporter line. Potencies of inconclusive entries are doubtful fits and often do not repeat.
# Assay: qHTS Assay for Foot and Mouth Disease Virus Antivirals: Primary Screen against the MLPCN compound library; note: nearly all actives have a fitted effect of over 55% in size
# Settings: FMDV antiviral cell-based qHTS; activity, negative = inhibition: at 57.9 µM (top of the series)
# Potency is the fitted concentration of half-maximal effect.
Structure (SMILES),Potency,"activity, negative = inhibition"
CCCCCc1c2c(cc(O)c1C(=O)O)OC(=O)c1c(cc(OC)cc1C(=O)CCCC)O2,"inconclusive: 31.6 µM [inhibitor, single point]",–
O=C(CCl)N1c2ccccc2Sc2ccc3ccccc3c21,"inconclusive: 31.6 µM [inhibitor, partial curve, poor fit]",–
CC(=O)CCc1ccc(OCCCCN2CCC(Cc3ccccc3)CC2)cc1,"inconclusive: 28.2 µM [inhibitor, partial curve, poor fit]",–
Cc1ccc(NC(=O)CC(C)S(=O)(=O)c2ccc3c(c2)NC(=O)CO3)cc1Cl (stereo unspecified),"inconclusive: 11.2 µM [inhibitor, partial curve, poor fit]",–
Cc1ccc2cc(C#N)c(N3CCN(C(=O)c4cccs4)CC3)nc2c1,"inconclusive: 31.6 µM [inhibitor, single point]",–
COc1ccc(-c2sc3ccc(N4CCOCC4)cc3c2C#CCO)cc1,"inconclusive: 15.8 µM [inhibitor, partial curve, poor fit]",–
Clc1ccc(-c2noc(CSc3nnc(-c4ccncc4)n3-c3ccccc3)n2)cc1,"inconclusive: 25.1 µM [inhibitor, partial curve, poor fit]",–
O=S1(=O)CCC(NC(=S)SCCOc2ccccc2)C1 (stereo unspecified),"inconclusive: 14.1 µM [inhibitor, partial curve, poor fit]",–
CCCC(=O)N1CCN(c2ccc(NC(=O)c3cc4ccccc4o3)cc2)CC1,"inconclusive: 25.1 µM [inhibitor, partial curve, poor fit]",–
Cc1ccc(C(=O)N2CCCC(Nc3ccc(C)c(C)c3)C2)c(=O)[nH]1 (stereo unspecified),–,inconclusive: -31.3% [inhibitor]
CC1=C(C(=O)NCc2ccco2)C2(CCC(C)CC2)OC1=O (stereo unspecified),"inconclusive: 2.51 µM [inhibitor, full curve]",–
C=CCOc1ccc(/C=C2\SC(=S)N(CCC(=O)O)C2=O)cc1,"inconclusive: 1 µM [inhibitor, full curve, poor fit]",–
CC1Cc2ccccc2N1c1ncnc(N)c1[N+](=O)[O-] (stereo unspecified),–,inactive: -21.1%
CC(=O)Nc1cccc(C(=O)/C=C/c2ccc(Br)cc2)c1,"inconclusive: 25.1 µM [inhibitor, partial curve, poor fit]",–
CCOC(=O)c1c(CC(C)C)csc1NC(=O)COC(=O)c1ccc(O)cc1,"inconclusive: 35.5 µM [inhibitor, partial curve, poor fit]",–
Cc1ccc(NC(=O)c2ccc(Cl)c(N3C(=O)C=CC3=O)c2)cc1,"inconclusive: 39.8 µM [inhibitor, partial curve, poor fit]",–
CC(C)(C)c1ccc(/C=N/Nc2ccc(C(=O)O)cc2)cc1,"inconclusive: 7.08 µM [inhibitor, full curve, poor fit]",–
CCCOc1ccc2cc(-c3ccccn3)c(=O)oc2c1,"inconclusive: 10 µM [inhibitor, partial curve, poor fit]",–

# 7 of the compounds above, with tabs.
Structure (SMILES)	Potency	activity, negative = inhibition
CC1=C(C(=O)NCc2ccco2)C2(CCC(C)CC2)OC1=O (stereo unspecified)	inconclusive: 2.51 µM [inhibitor, full curve]	–
C=CCOc1ccc(/C=C2\SC(=S)N(CCC(=O)O)C2=O)cc1	inconclusive: 1 µM [inhibitor, full curve, poor fit]	–
CC1Cc2ccccc2N1c1ncnc(N)c1[N+](=O)[O-] (stereo unspecified)	–	inactive: -21.1%
CC(=O)Nc1cccc(C(=O)/C=C/c2ccc(Br)cc2)c1	inconclusive: 25.1 µM [inhibitor, partial curve, poor fit]	–
CCOC(=O)c1c(CC(C)C)csc1NC(=O)COC(=O)c1ccc(O)cc1	inconclusive: 35.5 µM [inhibitor, partial curve, poor fit]	–
Cc1ccc(NC(=O)c2ccc(Cl)c(N3C(=O)C=CC3=O)c2)cc1	inconclusive: 39.8 µM [inhibitor, partial curve, poor fit]	–
CC(C)(C)c1ccc(/C=N/Nc2ccc(C(=O)O)cc2)cc1	inconclusive: 7.08 µM [inhibitor, full curve, poor fit]	–

# The results go on:

Structure (SMILES),Potency,"activity, negative = inhibition"
CCOc1cc(/C=C2\C(=O)N(c3ccc(C(N)=O)cc3)N=C2C)ccc1OC(=O)c1cccs1,–,inactive: -38%
Cc1cc(C=C2C(=O)c3ccccc3C2=O)c(C)n1-c1ccccc1,"inconclusive: 1.12 µM [inhibitor, full curve, poor fit]",–
COc1ccc(-c2nc(CN3CCN(c4ccccc4OC)CC3)c(C)o2)cc1,"inconclusive: 28.2 µM [inhibitor, partial curve, poor fit]",–
CC1CCC(C(C)C)C(OC(=O)COC(=O)c2ccc(=O)[nH]c2)C1 (stereo unspecified),"inconclusive: 20 µM [inhibitor, partial curve, poor fit]",–
N#Cc1c2n(c3c(=O)[nH]cnc13)CCCC2,"inconclusive: 25.1 µM [inhibitor, partial curve, poor fit]",–
Cc1ccc(-n2ncc3c(N4CCN(Cc5ccccc5)CC4)ncnc32)cc1C,"inconclusive: 14.1 µM [inhibitor, partial curve, poor fit]",–
O=C(Nc1ccc(F)cc1)N1CCN(c2nc3ccccc3s2)CC1,"inconclusive: 28.2 µM [inhibitor, partial curve, poor fit]",–
CC1Cc2ccccc2N1C(=O)CN1CCC(n2nnc3cc(C(F)(F)F)ccc32)CC1 (stereo unspecified),"inconclusive: 20 µM [inhibitor, partial curve, poor fit]",–
CC1(C(=O)Nc2cccc(C#N)c2)CCN1C(=O)Cc1ccc(-c2ccccc2)cc1 (stereo unspecified),"inconclusive: 25.1 µM [inhibitor, partial curve, poor fit]",–
Cc1ccccc1C(=O)N(CC(=O)Nc1sc(C)c(C)c1C(N)=O)C1CCCC1,"inconclusive: 20 µM [inhibitor, partial curve, poor fit]",–
O=C1c2ccccc2C(=O)c2cc(N3CCCCC3)ccc21,"inconclusive: 10 µM [inhibitor, partial curve, poor fit]",–
CN(C(=O)c1cccc(Nc2ccc(-c3ccc4c(c3)OCCO4)nn2)c1)C1CCCCC1,"inconclusive: 39.8 µM [inhibitor, single point]",–
COc1ccccc1CNC(=O)Nc1ccc2c(c1)N(C)C(=O)c1ccccc1S2,"inconclusive: 28.2 µM [inhibitor, partial curve, poor fit]",–
Cc1cc(-c2ccc(N=Nc3ccc4c(S(=O)(=O)O)cc(S(=O)(=O)O)c(N)c4c3O)c(C)c2)ccc1N=Nc1ccc2c(S(=O)(=O)O)cc(S(=O)(=O)O)c(N)c2c1O,"inconclusive: 31.6 µM [inhibitor, partial curve, poor fit]",–
Cc1cccn2c(=O)c3cc(C(=O)NCc4ccc(F)cc4)c(=N)n(CC4CCCO4)c3nc12 (stereo unspecified),"inconclusive: 11.2 µM [inhibitor, partial curve]",–
Fc1ccccc1CNc1nc(-c2cccnc2)nc2ccccc12,"inconclusive: 28.2 µM [inhibitor, single point]",–
CCc1cc(C(=O)N2CCCC(C(=O)c3ccc(C(F)(F)F)cc3)C2)n(C)n1 (stereo unspecified),"inconclusive: 11.2 µM [inhibitor, partial curve]",–
CC(C)Oc1ccc(C(=O)Nc2ccc3oc(-c4ccncc4)nc3c2)cc1,–,inactive: -28.6%
